# Some of the results follow.
# Protein sequences, listed by entry. Tags and fused reporters are not part of them. Lines headed by an entry give the natural chain unless they say otherwise; changes in a name come on top.
# UniProt P53355: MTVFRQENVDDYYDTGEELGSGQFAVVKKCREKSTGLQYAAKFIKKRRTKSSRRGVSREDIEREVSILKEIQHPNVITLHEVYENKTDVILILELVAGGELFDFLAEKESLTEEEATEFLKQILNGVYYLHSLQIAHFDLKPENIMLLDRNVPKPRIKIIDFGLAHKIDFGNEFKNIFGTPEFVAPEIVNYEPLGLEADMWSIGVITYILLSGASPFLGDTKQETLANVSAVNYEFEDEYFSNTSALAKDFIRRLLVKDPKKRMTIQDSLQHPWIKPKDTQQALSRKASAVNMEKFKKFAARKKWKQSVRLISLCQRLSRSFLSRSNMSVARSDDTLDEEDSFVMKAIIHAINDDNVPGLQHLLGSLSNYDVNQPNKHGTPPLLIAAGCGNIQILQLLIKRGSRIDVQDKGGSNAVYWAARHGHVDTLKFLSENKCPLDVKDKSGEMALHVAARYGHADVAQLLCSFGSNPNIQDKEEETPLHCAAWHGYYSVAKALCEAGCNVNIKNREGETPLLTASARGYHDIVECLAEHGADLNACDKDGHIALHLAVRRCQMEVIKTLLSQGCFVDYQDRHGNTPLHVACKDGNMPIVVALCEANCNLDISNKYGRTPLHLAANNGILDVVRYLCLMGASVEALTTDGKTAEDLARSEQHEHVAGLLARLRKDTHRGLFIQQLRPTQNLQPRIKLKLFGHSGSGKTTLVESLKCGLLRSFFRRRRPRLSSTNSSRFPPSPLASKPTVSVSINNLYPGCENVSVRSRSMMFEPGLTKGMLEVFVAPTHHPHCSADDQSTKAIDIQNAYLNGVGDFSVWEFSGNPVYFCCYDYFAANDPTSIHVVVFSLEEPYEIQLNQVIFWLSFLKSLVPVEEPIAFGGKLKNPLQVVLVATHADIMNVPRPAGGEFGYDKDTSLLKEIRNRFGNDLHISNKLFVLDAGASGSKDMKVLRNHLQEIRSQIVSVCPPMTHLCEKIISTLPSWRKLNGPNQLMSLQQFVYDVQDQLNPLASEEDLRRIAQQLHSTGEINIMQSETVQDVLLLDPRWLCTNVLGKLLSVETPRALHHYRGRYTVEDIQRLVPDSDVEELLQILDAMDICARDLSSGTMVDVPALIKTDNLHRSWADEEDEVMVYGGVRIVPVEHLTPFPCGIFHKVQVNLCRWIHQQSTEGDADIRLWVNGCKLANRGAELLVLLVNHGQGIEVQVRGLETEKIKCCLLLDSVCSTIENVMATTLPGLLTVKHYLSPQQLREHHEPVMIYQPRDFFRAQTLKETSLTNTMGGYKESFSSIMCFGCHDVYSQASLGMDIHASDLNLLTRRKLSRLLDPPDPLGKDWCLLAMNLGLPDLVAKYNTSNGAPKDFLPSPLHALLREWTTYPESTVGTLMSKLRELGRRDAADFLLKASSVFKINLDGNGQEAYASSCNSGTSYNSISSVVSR
# UniProt Q15438: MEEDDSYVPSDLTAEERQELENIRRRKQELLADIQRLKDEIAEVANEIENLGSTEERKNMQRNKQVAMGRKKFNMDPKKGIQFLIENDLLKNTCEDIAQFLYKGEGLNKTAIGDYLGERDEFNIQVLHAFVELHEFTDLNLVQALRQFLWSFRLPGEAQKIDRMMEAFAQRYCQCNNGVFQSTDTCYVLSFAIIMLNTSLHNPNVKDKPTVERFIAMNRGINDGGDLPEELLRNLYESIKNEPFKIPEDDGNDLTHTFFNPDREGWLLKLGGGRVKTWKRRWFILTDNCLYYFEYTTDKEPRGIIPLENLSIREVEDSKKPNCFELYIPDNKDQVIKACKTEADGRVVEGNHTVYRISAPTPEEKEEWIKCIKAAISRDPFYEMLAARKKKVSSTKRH
# UniProt Q53TN4: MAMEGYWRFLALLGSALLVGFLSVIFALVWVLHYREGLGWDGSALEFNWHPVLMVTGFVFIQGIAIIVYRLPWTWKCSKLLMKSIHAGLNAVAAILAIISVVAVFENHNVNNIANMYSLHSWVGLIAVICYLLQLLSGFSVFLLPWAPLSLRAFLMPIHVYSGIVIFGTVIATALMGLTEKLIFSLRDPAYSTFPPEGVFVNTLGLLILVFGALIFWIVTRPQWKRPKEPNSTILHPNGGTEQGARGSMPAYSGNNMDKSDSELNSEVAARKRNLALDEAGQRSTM
# UniProt Q9Y5B0: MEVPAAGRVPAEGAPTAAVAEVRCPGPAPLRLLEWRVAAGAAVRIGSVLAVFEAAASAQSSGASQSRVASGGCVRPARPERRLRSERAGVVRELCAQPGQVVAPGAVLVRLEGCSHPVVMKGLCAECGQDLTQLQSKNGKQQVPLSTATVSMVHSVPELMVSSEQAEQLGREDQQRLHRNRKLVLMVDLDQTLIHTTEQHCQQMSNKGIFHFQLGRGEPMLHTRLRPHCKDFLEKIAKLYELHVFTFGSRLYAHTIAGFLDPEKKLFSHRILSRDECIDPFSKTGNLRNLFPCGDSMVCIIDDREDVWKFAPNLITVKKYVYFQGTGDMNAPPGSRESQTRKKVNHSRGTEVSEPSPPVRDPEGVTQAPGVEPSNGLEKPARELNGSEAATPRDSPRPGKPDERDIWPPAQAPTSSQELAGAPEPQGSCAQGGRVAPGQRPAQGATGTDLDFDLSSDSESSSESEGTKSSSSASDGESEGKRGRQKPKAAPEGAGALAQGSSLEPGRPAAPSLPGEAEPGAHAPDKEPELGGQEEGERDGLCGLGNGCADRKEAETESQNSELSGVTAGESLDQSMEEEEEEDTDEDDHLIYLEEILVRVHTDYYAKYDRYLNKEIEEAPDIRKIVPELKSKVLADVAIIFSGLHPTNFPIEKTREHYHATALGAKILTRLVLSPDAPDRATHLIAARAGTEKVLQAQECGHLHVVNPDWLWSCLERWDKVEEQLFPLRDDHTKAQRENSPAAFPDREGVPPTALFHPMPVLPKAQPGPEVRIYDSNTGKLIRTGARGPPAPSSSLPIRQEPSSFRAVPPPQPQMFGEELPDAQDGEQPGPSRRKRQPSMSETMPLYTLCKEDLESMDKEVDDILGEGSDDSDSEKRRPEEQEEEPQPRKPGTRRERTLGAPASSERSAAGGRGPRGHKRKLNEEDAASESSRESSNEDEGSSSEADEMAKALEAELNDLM
# UniProt Q9P0U4, whole entry, looked up: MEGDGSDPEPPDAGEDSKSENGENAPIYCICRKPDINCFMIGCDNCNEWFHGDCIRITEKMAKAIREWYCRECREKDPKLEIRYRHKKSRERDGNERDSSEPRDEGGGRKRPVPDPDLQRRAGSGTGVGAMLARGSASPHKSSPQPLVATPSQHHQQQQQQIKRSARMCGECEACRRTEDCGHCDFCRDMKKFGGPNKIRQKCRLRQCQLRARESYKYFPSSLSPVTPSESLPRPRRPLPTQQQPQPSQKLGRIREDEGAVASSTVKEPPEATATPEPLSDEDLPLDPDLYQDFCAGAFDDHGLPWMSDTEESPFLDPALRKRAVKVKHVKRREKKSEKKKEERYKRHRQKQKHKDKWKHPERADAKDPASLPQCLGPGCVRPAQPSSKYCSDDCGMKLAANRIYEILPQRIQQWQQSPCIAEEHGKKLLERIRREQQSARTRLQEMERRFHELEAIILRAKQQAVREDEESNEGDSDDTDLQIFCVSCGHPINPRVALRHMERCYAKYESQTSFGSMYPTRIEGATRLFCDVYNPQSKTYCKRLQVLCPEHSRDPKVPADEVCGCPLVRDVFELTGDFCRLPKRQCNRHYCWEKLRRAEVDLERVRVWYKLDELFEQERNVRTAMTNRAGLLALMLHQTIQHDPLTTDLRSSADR
# UniProt Q99418: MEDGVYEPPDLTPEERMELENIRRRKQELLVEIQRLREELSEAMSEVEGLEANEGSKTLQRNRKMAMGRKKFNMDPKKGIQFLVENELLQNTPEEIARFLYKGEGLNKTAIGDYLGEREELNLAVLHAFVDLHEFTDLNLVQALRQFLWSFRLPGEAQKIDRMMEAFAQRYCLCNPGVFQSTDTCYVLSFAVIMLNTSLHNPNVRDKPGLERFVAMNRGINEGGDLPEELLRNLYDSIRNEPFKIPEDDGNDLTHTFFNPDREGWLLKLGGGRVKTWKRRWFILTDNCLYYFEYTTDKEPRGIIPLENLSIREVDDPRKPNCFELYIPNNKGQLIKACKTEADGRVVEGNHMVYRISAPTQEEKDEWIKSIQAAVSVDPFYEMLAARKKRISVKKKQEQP
# UniProt Q2TBE0: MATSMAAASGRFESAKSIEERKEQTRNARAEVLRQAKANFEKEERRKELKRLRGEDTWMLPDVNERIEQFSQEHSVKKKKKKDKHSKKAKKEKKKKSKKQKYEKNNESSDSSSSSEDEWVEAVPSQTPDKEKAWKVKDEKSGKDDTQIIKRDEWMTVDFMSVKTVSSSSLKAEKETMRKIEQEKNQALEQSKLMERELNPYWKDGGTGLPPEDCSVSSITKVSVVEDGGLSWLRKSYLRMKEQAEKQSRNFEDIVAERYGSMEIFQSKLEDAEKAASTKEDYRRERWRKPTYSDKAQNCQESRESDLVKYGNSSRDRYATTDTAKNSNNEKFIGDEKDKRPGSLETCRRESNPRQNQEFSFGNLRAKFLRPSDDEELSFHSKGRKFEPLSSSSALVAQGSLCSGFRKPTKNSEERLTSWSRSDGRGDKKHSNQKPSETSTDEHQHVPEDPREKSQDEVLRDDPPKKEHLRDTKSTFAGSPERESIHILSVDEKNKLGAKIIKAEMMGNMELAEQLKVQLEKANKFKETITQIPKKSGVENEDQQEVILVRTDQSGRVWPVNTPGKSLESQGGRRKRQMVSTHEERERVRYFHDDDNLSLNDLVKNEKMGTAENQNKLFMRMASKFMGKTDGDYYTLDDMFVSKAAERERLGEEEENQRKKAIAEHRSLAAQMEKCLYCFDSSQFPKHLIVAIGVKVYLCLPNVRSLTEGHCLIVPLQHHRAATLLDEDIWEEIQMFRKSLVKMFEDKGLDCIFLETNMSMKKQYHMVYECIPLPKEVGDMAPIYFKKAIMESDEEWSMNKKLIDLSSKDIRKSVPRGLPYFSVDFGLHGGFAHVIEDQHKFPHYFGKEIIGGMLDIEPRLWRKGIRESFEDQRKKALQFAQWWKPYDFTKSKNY
# UniProt Q15828: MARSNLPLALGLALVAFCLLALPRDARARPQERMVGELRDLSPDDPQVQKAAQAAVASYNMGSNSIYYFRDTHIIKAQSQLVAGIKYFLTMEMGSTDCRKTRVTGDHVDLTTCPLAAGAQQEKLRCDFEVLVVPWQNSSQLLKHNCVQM
# UniProt Q8WV16: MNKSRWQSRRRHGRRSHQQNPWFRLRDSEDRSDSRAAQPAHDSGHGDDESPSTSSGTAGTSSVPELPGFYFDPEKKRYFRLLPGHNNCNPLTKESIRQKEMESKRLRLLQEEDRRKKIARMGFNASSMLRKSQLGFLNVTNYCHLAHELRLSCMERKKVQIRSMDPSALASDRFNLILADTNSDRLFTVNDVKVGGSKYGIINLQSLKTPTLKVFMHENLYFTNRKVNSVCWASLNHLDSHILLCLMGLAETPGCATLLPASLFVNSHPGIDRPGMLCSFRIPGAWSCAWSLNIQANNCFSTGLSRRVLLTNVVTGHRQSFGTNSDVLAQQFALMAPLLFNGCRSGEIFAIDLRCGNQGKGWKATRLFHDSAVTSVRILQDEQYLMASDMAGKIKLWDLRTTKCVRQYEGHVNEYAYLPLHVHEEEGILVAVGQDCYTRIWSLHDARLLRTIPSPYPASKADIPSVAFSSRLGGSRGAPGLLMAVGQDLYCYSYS
# UniProt Q92564: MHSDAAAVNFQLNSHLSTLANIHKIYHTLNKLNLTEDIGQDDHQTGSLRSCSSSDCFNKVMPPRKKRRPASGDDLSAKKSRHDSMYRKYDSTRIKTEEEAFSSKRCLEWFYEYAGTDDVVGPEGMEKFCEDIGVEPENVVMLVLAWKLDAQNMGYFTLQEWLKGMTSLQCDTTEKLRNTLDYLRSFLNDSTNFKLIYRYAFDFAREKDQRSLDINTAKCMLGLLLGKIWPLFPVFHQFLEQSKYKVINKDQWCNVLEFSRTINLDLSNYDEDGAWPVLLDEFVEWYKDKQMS
# UniProt O60931: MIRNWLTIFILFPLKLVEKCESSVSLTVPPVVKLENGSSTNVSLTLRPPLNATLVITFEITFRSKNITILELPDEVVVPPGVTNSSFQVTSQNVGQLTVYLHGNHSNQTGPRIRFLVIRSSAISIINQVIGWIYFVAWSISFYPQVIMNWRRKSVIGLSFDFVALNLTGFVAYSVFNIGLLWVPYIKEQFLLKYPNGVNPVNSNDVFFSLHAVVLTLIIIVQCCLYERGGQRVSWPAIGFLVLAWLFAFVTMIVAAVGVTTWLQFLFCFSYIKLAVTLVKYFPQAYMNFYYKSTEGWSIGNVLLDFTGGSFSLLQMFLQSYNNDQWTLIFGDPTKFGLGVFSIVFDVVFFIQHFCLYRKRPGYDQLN
# UniProt Q9BTE7: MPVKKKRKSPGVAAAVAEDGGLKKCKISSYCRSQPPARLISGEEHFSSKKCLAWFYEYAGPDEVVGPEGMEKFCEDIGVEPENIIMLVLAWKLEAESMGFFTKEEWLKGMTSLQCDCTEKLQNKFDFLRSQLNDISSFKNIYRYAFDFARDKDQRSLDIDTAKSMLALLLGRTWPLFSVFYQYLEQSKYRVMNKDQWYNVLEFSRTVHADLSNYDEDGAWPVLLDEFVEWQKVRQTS
# Compound: Cn1cncc1[C@@](N)(c1ccc(Cl)cc1)c1ccc2c(c1)c(-c1cccc(Cl)c1)cc(=O)n2C [tipifarnib]
# Assay: log2 fold change, soluble protein after heating vs DMSO (PISA); higher = thermal stabilisation; K562 cells, 10 uM, 30 min; active = over 0.2 and 3.5 SD of the protein, either way, in both replicates (recomputed)
# How it was run: (§1)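 Aliquots of K562 cells (2×10^6 cells/mL) treated with 10 μM compound for 30 min were heated for 3 min over 48°C-58°C. After pooling and extraction in PBS with 0.5% NP-40 at 4°C, soluble protein from a 21,000xg, 90 min spin was quantified by TMTpro 16plex LC-MS/MS with channel sums equalised. Thermal stability is expressed against control samples, from duplicates, as a log2 fold change.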
row,Target,log2 fold change
1,DAPK1 isoform 3 (UniProt P53355),inactive: 0.031
2,CYTH1 (UniProt Q15438),inactive: 0.067
3,DCBLD1 (UniProt Q8N8Z6),inactive: 0.21
4,DCP2 (UniProt Q8IU60),inactive: -0.112
5,CYBRD1 (UniProt Q53TN4),inactive: 0.18
6,CTDP1 (UniProt Q9Y5B0),inactive: 0.057
7,CSPG5 (UniProt O95196),inactive: -0.004
8,CWC22 (UniProt Q9HCG8),inactive: -0.157
9,CXXC1 isoform 2 (UniProt Q9P0U4),inactive: -0.058
10,CUL7 isoform 2 (UniProt Q14999),inactive: 0.041
11,CYTH2 (UniProt Q99418),inactive: 0.081
12,CWF19L2 (UniProt Q2TBE0),inactive: 0.083
13,CTR9 (UniProt Q6PD62),inactive: 0
14,CTNNBL1 (UniProt Q8WYA6),inactive: 0.022

# Compound: FC(F)(F)c1ccc(/C=C/c2nc(COc3ccc(CCCCn4ccnn4)cc3)co2)cc1 [mubritinib]
# Assay: as above
# How it was run: as §1
row,Target,log2 fold change
1,CST6 (UniProt Q15828),inactive: -0.118
2,DCAF4 (UniProt Q8WV16),inactive: 0.094
3,DAPK1 isoform 3 (UniProt P53355),inactive: -0.002
4,DCUN1D4 isoform 3 (UniProt Q92564),inactive: -0.015
5,CTNS isoform 2 (UniProt O60931),inactive: -0.133
6,CYTH1 (UniProt Q15438),inactive: 0.101
7,DCAF12 (UniProt Q5T6F0),inactive: 0.087
8,CYBRD1 (UniProt Q53TN4),inactive: 0.091
9,CTDP1 (UniProt Q9Y5B0),inactive: 0.07
10,DCUN1D5 (UniProt Q9BTE7),inactive: 0.019
11,CYREN (UniProt Q9BWK5),inactive: 0.16
12,CYTH2 (UniProt Q99418),inactive: 0.01
13,CTNNBIP1 (UniProt Q9NSA3),inactive: 0.055
14,DAPK2 isoform 2 (UniProt Q9UIK4),inactive: -0.23
15,CXCL14 (UniProt O95715),inactive: -0.098

# Compound: NC(=O)Nc1cc(-c2cccc(F)c2)sc1C(=O)N[C@H]1CCCNC1
# Assay: as above
# How it was run: as §1
row,Target,log2 fold change
1,CST6 (UniProt Q15828),inactive: 0.113
2,DBNDD1 isoform 3 (UniProt Q9H9R9),inactive: -0.095
3,DCAF4 (UniProt Q8WV16),inactive: -0.046
4,DAPK1 isoform 3 (UniProt P53355),inactive: -0.052
5,DCUN1D4 isoform 3 (UniProt Q92564),inactive: -0.054
6,CTPS1 isoform 2 (UniProt P17812),inactive: -0.426
7,CTNS isoform 2 (UniProt O60931),inactive: 0.044
8,CTSS (UniProt P25774),inactive: -0.054
9,DCAF12 (UniProt Q5T6F0),inactive: -0.025
10,DCP2 (UniProt Q8IU60),inactive: -0.076
11,CTDP1 (UniProt Q9Y5B0),inactive: -0.072
12,CSPG5 (UniProt O95196),inactive: -0.057
13,CTDNEP1 (UniProt O95476),inactive: -0.076
14,CXXC1 isoform 2 (UniProt Q9P0U4),inactive: 0.003
15,CSRP2 (UniProt Q16527),inactive: -0.025
16,CWF19L2 (UniProt Q2TBE0),inactive: 0.129
17,CTR9 (UniProt Q6PD62),inactive: 0.171
18,DAPK2 isoform 2 (UniProt Q9UIK4),inactive: 0.002
19,CTIF (UniProt O43310),inactive: -0.257
20,CXCL14 (UniProt O95715),inactive: -0.127

# Compound: NC(=O)c1cnc(N[C@@H]2CCCC[C@@H]2N)nc1Nc1cccc(-n2nccn2)c1
# Assay: as above
# How it was run: as §1
row,Target,log2 fold change
1,DCUN1D4 isoform 3 (UniProt Q92564),inactive: -0.064
2,CTPS1 isoform 2 (UniProt P17812),inactive: 0.147
3,CYTH1 (UniProt Q15438),inactive: -0.122
4,CXorf40B (UniProt Q96DE9),inactive: -0.06
5,DCP2 (UniProt Q8IU60),inactive: 0.009
6,CYBRD1 (UniProt Q53TN4),inactive: -0.151
7,CTDNEP1 (UniProt O95476),inactive: 0.178
8,DCBLD2 isoform 2 (UniProt Q96PD2),inactive: 0.226
9,CXXC1 isoform 2 (UniProt Q9P0U4),inactive: -0.016
10,CSRP2 (UniProt Q16527),inactive: 0.045
11,DCUN1D5 (UniProt Q9BTE7),inactive: 0.019
12,CTDSPL2 (UniProt Q05D32),inactive: 0.384
13,CYTH2 (UniProt Q99418),inactive: -0.074
14,CWF19L2 (UniProt Q2TBE0),inactive: 0.013
15,CYP4V2 (UniProt Q6ZWL3),inactive: 0.102

# Compound: NC1(c2ccc(-c3nc4ccn5c(=O)[nH]nc5c4cc3-c3ccccc3)cc2)CCC1
# Assay: as above
# How it was run: as §1
row,Target,log2 fold change
1,CST6 (UniProt Q15828),inactive: 0.176
2,DCAF4 (UniProt Q8WV16),inactive: -0.127
3,DAPK1 isoform 3 (UniProt P53355),inactive: -0.19
4,DCUN1D4 isoform 3 (UniProt Q92564),inactive: -0.003
5,CTNS isoform 2 (UniProt O60931),inactive: -0.05
6,CYTH1 (UniProt Q15438),inactive: -0.122
7,DCAF12 (UniProt Q5T6F0),inactive: -0.201
8,CYBRD1 (UniProt Q53TN4),inactive: -0.092
9,CTDP1 (UniProt Q9Y5B0),inactive: -0.084
10,DCUN1D5 (UniProt Q9BTE7),inactive: -0.201
11,CYREN (UniProt Q9BWK5),inactive: -0.098
12,CYTH2 (UniProt Q99418),inactive: -0.08
13,CTNNBIP1 (UniProt Q9NSA3),inactive: 0.077
14,DAPK2 isoform 2 (UniProt Q9UIK4),inactive: -0.028
15,CXCL14 (UniProt O95715),inactive: -0.325
